Laboratory results from the supplement of paper PMC3353916.

Test system: Sindbis virus TE/5'2J-GFP
Assay: percent infected (GFP+ in RFP+ ISG-expressing cells); higher = more infection (less antiviral activity)
Method: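 Confirmatory testing of 87 ISGs. Triplicate wells of BHK/HA-Zeo (control) or BHK/NZAP-Zeo (ZAP) cells were transduced with lentiviruses co-expressing a human ISG plus TagRFP, then infected 48 h later with SINV TE/5'2J-GFP (moi 5). The % GFP+ cells among RFP+ cells was measured by flow cytometry at 8 h post infection. Fluc lentivirus served as control. Three independent experiments.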
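Further: Interferon-defective BHK-21 derivatives, ZAP line overexpressing the rat ZAP N-terminal zinc finger domain fused to Zeocin resistance, GFP scored within live singlet TagRFP+ cells.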

MDPNCSCSPVGSCACAGSCKCKECKCTSCKKSCCSCCPVGCAKCAQGCICKGTSDKCSCCA [MT1X]
Details	percent infected [%]
experiment: confirmatory screen 1, BHK/HA-Zeo (control)	96.36
experiment: confirmatory screen 1, BHK/NZAP-Zeo (ZAP)	76.3
experiment: confirmatory screen 2, BHK/HA-Zeo (control)	95.95
experiment: confirmatory screen 2, BHK/NZAP-Zeo (ZAP)	94.54
experiment: confirmatory screen 3, BHK/HA-Zeo (control)	92.9
experiment: confirmatory screen 3, BHK/NZAP-Zeo (ZAP)	92.63
